Data on 1 molecule can be found in patent US20250092140A1.

The chains behind the UniProt entries cited, without tags or fusion partners. Residues count along the entry.
UniProt O14931, residues 19-138: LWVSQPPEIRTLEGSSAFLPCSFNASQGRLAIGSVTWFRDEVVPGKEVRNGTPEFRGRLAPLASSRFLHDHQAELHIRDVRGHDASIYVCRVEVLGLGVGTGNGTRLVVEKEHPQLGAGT

These are yes or no findings as the source states them, for the method shown. Some results given as binding are weak or reduced against the parent protein; the word gives no strength.

In this assay the target is human-NKP30-His (human) (UniProt O14931). The assay can be described thus: ELISA, human-NKP30-His coated. In general terms: An ELISA detects its analyte on a solid surface through an enzyme-linked reagent.

B1: NKP30 monoclonal antibody (antibody, V domains shown)
VH: EVQLVESGGGLVQPGGSLRLSCAASGITFSRSVMGWFRQAPGKLRELVAGITSDDNTDYADSVKGRFTISRDNSKNTLYLQMNSLRAEDTAVYYCNILPDSRLGWGQGTLVTVSS
B1: the binding entry is listed as “binds”.
